Measurements: PubChem BioAssay AID2685 (National Center for Advancing Translational Sciences (NCATS), 2010)
The list shows a part of the results. The main result of the screen is listed elsewhere. These columns were measured beside it and carry no call. Most of these compounds were active or inconclusive in the main read-out, so they are no random draw. Potencies come from curve fits of mixed quality, noted in brackets.

Experiment: qHTS Assay for Lipid Storage Modulators in Drosophila S3 Cells;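 for cell number change: cells counted by Cell Tracker Red CMTPX staining in the red channel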
Conditions: BODIPY lipid droplet fluorescence, 18-24 h; for cell number change: measured here: cell count max response, cells fed with added oleic acid
Procedure, shortened: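 Drosophila S3 cells got compounds at several concentrations plus oleic acid (400 uM solution). Laser-scanning cytometry with 488 nm excitation read lipid droplets at 500-530 nm and cells at 575-640 nm. Percent activity was relative to 20 uM Triacsin C.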

[1] = measured here: lipid fluorescence (Fed channel) AC50, cells fed with added oleic acid
[2] = measured here: cell number channel AC50, cells fed with added oleic acid

| SMILES | cell number change [%] | AC50 [1] | AC50 [2] |
| --- | --- | --- | --- |
| O=C(c1ccccc1F)N1CCCc2ccccc21 | -2.49 | 0.58 µM [falling, single point] |  |
| O=C(NCCOc1ccccc1)c1ccccc1NC(=O)C1CCCO1 (stereo not given) | -1.32 | 6.51 µM [rising, single point] |  |
| COC(=O)c1ccccc1NC(=O)c1ccc(COc2ccccc2)o1 | 116 | 9.2 µM [rising, partial curve] | 18.4 µM [rising, partial curve] |
| COc1ccccc1CC(=O)N1CCCC(CCC(=O)NCc2ccccc2F)C1 (stereo not given) | -28.3 | 16.4 µM [falling, single point] |  |
| COc1cccc(NC(=O)N2CCCC2)c1 | -55.4 |  |  |
| CC(C)NC(=O)C(=O)N/N=C/c1ccco1 | -90.2 | 4.61 µM [falling, full curve] | 4.11 µM [falling, full curve] |
| Cc1ccc(NC2=NCC(Cc3ccc(Br)cc3)S2)cc1 (stereo not given) | -60.9 | 16.4 µM [falling, single point] | 16.4 µM [falling, single point] |
| CCCc1nc2ccccc2c(=O)n1N |  |  | 0.731 µM [rising, single point] |
| O=C(N/N=C\c1ccncc1)c1ccccc1O | -31.4 | 16.4 µM [falling, single point] | 16.4 µM [falling, single point] |
| CCOc1ccc(C(=O)NC2CCN(C(=O)NCc3ccccc3)CC2)cc1 | -4.82 |  | 0.731 µM [rising, full curve, poor fit] |
| CCCCn1c(N)c(N(CC(C)C)C(=O)c2ccc(C)c(S(=O)(=O)N3CCCCC3)c2)c(=O)[nH]c1=O | -25 |  | 0.184 µM [falling, full curve, poor fit] |
| CC1(c2ccc3c(c2)OCO3)NC(=O)N(CC(=O)c2ccc[nH]2)C1=O (stereo not given) | 24.5 |  |  |
| CNCCCC12CCC(c3ccccc31)c1ccccc12 |  | 29.1 µM [rising, single point] | 13 µM [rising, partial curve, poor fit] |
| COc1ccc(CCNC(=S)N2CCN(S(=O)(=O)c3ccccc3F)CC2)cc1 |  | 20.6 µM [falling, single point] |  |
| Cc1ccccc1CC(=O)Nc1ccc2c(c1)CCC2 | 43.3 |  | 32.6 µM [rising, single point] |
| C[C@H](NC(=O)c1nc[nH]c1C(=O)NCC(=O)OC(C)(C)C)c1ccccc1 | 17.7 | 2.06 µM [rising, partial curve] |  |
| CC(=O)c1cccc(NC(=S)NC(=O)c2ccccc2Br)c1 | -26 | 0.517 µM [falling, single point] |  |
| COc1ccc([C@H]2CC(=O)C=C(c3cccc(Cl)c3)C2)cc1OC | -49.7 | 6.51 µM [falling, partial curve] | 5.8 µM [falling, partial curve] |
| CCOC(=O)c1c(NC(=O)C2C3C=CC(C3)C2C(=O)O)sc2c1CC(C)CC2 (stereo not given) | 2.87 | 0.291 µM [falling, partial curve, poor fit] |  |
| Cc1cc([N+](=O)[O-])cc2c1-c1ncccc1C2=Nc1ccccc1 | -0.845 |  |  |

| SMILES | cell number change [%] | AC50 [1] | AC50 [2] |
| --- | --- | --- | --- |
| CCOC(=O)/C(=N\Nc1ccccc1Cl)N(C)C1CCS(=O)(=O)C1 (stereo not given) | -25.1 | 1.03 µM [falling, full curve] |  |
| Cn1c(SCc2ccccc2)nnc1-c1cnccn1 | 32.1 | 0.206 µM [falling, full curve, poor fit] | 5.17 µM [rising, full curve, poor fit] |
| COc1ccc(C(C)(C)C)cc1NC(=O)c1ccc2ncsc2c1 | 26.5 | 0.146 µM [falling, full curve, poor fit] |  |
| O=C(COc1ccccc1Br)NC1CCCC1 | -14.6 |  |  |
| O=C(C1CCC(=O)N(C2CCCC2)C1)N1CCC(Oc2cccc(F)c2)CC1 (stereo not given) |  | 0.092 µM [falling, full curve, poor fit] |  |
| COc1ccc(N2CCN(CC(O)COC(C)(C)C)CC2)cc1 (stereo not given) | -17.3 |  |  |
| Cc1ccc(NC(=O)N2N=C(c3ccc(F)cc3)CC2c2ccc(F)cc2)cc1 (stereo not given) | -8.28 | 1.84 µM [rising, partial curve] |  |
| CSCCC1NC(=S)N(Cc2ccccc2)C1=O (stereo not given) | -35.5 | 29.1 µM [falling, single point] | 32.6 µM [falling, single point] |
| O=c1[nH]n(-c2ccc(Cl)cc2)c(=O)c(Cl)c1Cl | -4.37 | 0.116 µM [falling, full curve] |  |
| Cn1c(O)c(N=NC(=O)c2ccccc2O)c2ccccc21 | -27.9 | 18.4 µM [falling, partial curve] |  |
| CN(C(=O)C1CCCN(c2ncnc3c2nc2n3CCCCC2)C1)c1cccc(Cl)c1 (stereo not given) | -14.2 | 29.1 µM [falling, single point] |  |
| N/C(=N\OC(=O)/C=C/c1ccccc1)c1ccc(Cl)cc1 | -43.7 | 16.4 µM [falling, single point] | 16.4 µM [falling, single point] |
| COCCCNC(=O)c1ccc2nc(Cc3ccc(OC)cc3)oc2c1 | 16.6 |  |  |
| NC(=O)Cn1nnc(-c2ccc(NC(=O)c3ccc(F)cc3)cc2)n1 | 16.9 |  |  |
| CCOC(=O)c1cc(C)nn1-c1nc(Cl)cc(OC)n1 | 22.1 | 1.46 µM [rising, full curve, poor fit] |  |
| CC(C(=O)NCC(=O)Nc1ccc(F)c(F)c1F)N1CCN(Cc2ccc(C#N)cc2)CC1 (stereo not given) | 12 |  |  |
| CCCCCCSc1ccc(-c2nc3ccc(C)cn3c2NCc2ccccc2)cc1OC |  | 29.1 µM [falling, partial curve, poor fit] |  |
| CCCOc1ccc(C(=O)Nc2ccc(CN3CCOCC3)cc2)cc1 | -11.4 | 29.1 µM [rising, single point] |  |
| COCCNC(=O)C(c1ccco1)N(C(=O)Cn1nnc2ccccc21)c1ccccc1C (stereo not given) |  |  | 5.17 µM [falling, partial curve] |
| CCn1c(=O)c(-[n+]2ccccc2)c(O)c2ccccc21 | 7.35 | 29.1 µM [falling, single point] |  |
